Reference: PubChem BioAssay AID1259425 (University of Nebraska Medical Center, 2018)

Screen: 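Find knockdowns that reproduce the gene expression pattern seen when KSR1 is lost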 (primary screen)
System: HCT116 human colon cancer cells
Reagent: siRNA pool against human genes, 50 nM siRNA
Measurement: 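After 50 nM siRNA pool, branched-DNA assay measures six marker transcripts per well, minus blank, normalised to the geometric mean of two housekeeping transcripts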
Reading the numbers: BNIP3L mRNA: higher = more BNIP3L transcript after knockdown
The whole screen tested about 14,000 reagents; shown is an unselected part. Further read-outs or replicates are left out here. Not stated in the record: the time to read-out.

With PIBF1 (GeneID 10464), how do the results read?
BNIP3L mRNA, set 1: 0.135

With DAZL (GeneID 1618), what was measured?
BNIP3L mRNA, set 1: 0.0919

How did the screen score GPC1 (GeneID 2817)?
BNIP3L mRNA, set 1: 0.0262

With ADH4 (GeneID 127), how do the results read?
BNIP3L mRNA, set 1: 0.118

With ZMPSTE24 (GeneID 10269), how do the results read?
BNIP3L mRNA, set 1: 0.0864

Which result is listed for PPP6R1 (GeneID 22870)?
BNIP3L mRNA, set 1: 0.186

With FAU (GeneID 2197), what does the deposit list?
BNIP3L mRNA, set 1: 0.0703

For MAP3K13 (GeneID 9175), what was measured?
BNIP3L mRNA, set 1: 0.109

Which result is listed for SETMAR (GeneID 6419)?
BNIP3L mRNA, set 1: 0.0819

How did the screen score TBXA2R (GeneID 6915)?
BNIP3L mRNA, set 1: 0.149

For SUV39H2 (GeneID 79723), what was measured?
BNIP3L mRNA, set 1: 0.0804

With MTMR6 (GeneID 9107), how do the results read?
BNIP3L mRNA, set 1: 0.0811
